The record followed here is paper PMC9814838, “The orphan nuclear receptor Nurr1 is responsive to non-steroidal anti-inflammatory drugs” (Communications Chemistry, 2020).

These are yes or no findings as the source states them, for the method shown.

The target in this test is biotinylated recombinant Nurr1 LBD (Tb-labeled through Tb-cryptate streptavidin) (human) (UniProt P43354). Kind of test: condition: only with 100 µM MFA (meclofenamic acid); AlphaScreen or HTRF; Nurr1 homodimerization as a2, in presence of 100 µM meclofenamic acid (MFA), 1% DMSO; both purified. A general note: In Alpha technology, singlet oxygen from a donor bead excites a nearby acceptor bead.

B1: GFP-Nurr1 LBD (domain or fragment, human, UniProt P43354-1 364-598, looked up)
chain: LISALVRAHVDSNPAMTSLDYSRFQANPDYQMSGDDTQHIQQFYDLLTGSMEIIRGWAEKIPGFADLPKADQDLLFESAFLELFVLRLAYRSNPVEGKLIFCNGVVLHRLQCVRGFGEWIDSIVEFSSNLQNMNIDISAFSCIAALAMVTERHGLKEPKRVEELQNKIVNCLKDHVTFNNGGLNRPNYLSKLLGKLPELRTLCTQGLQRIFYLKLEDLVPPPAIIDKLFLDTLPF
notes: Superfolder GFP is the FRET acceptor; a BamHI site lies between GFP and the LBD; also called GFP-labeled Nurr1 LBD; source: E. coli T7 express with pGro7, purified (IMAC, TEV cleavage, reverse IMAC, SEC); not shown: His10, N-terminal, cleaved; superfolder GFP, N-terminal, kept
B1: the binding entry is given as “no binding”.
